Measured data: PubChem BioAssay AID504764 (Drosophila RNAi Screening Center, 2011)
The deposit covers about 22,000 reagents; this is an unselected part of those that have a named target and a result. Of all reagents, 403 (1.9%) were called active. 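Unnormalised raw counts per well; ratio z-scores behind the hit calls and whether each hit raises or lowers signal are not deposited.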 Reagents against one gene are numbered here. Not stated in the record: the amount of reagent.

- Purpose: 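Knock-downs that raise or lower a Notch target reporter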 (primary screen)
- Cell system: Drosophila Kc167 cells
- Knock-down reagent: long dsRNA against Drosophila genes
- Time to read-out: about 5 days (4 days dsRNA, then 24 h after transfection)
- Treatment: transfection of constitutively active membrane-tethered Notch lacking the extracellular domain, read 24 h later
- Measurement: 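Firefly luciferase from an E(spl)m3 reporter with active Notch, plus control-promoter and uninduced reporter wells for normalisation; unnormalised counts, duplicate wells a and b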
- Direction: induced reporter light, run 1, well a and induced reporter light, run 1, well b: higher = more light from the Notch target reporter with active Notch; control promoter light, run 1, well a and control promoter light, run 1, well b: higher = more light from the viral control promoter (cell number, transfection, viability); uninduced reporter light, run 1, well a: higher = more light from the Notch target reporter without active Notch
- Rule for the call: 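Hit if the duplicate-averaged log2 ratio of induced to control-promoter light gives a plate-wise z beyond ±2, or induced to uninduced beyond ±1.8; weak-control or discordant-duplicate wells dropped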
- Meaning of the calls: active = modifier hit (raised or lowered Notch signal); inactive = not a hit

CG33631 gave induced reporter light, run 1, well a = 1.68e5; induced reporter light, run 1, well b = 1.43e5; control promoter light, run 1, well a = 1.61e5; control promoter light, run 1, well b = 1.30e5; uninduced reporter light, run 1, well a = 12815; inactive. Against side-V #1, the values are induced reporter light, run 1, well a = 2.36e5; induced reporter light, run 1, well b = 2.09e5; control promoter light, run 1, well a = 2.05e5; control promoter light, run 1, well b = 1.86e5; uninduced reporter light, run 1, well a = 16915; inactive. Knock-down of side-V #2 resulted in: induced reporter light, run 1, well a = 1.64e5; induced reporter light, run 1, well b = 1.63e5; control promoter light, run 1, well a = 2.64e5; control promoter light, run 1, well b = 2.28e5; uninduced reporter light, run 1, well a = 14595; inactive. With knock-down of side-V #3, the record shows inactive. Against Atg17, the entry reads induced reporter light, run 1, well a = 1.11e5; induced reporter light, run 1, well b = 84820; control promoter light, run 1, well a = 68605; control promoter light, run 1, well b = 79130; uninduced reporter light, run 1, well a = 6065; inactive. After knock-down of Tango4, the record shows induced reporter light, run 1, well a = 16850; induced reporter light, run 1, well b = 13895; control promoter light, run 1, well a = 14485; control promoter light, run 1, well b = 11940; uninduced reporter light, run 1, well a = 1185; inactive.

Silencing of zetaTry came out at: induced reporter light, run 1, well a = 1.26e5; induced reporter light, run 1, well b = 1.32e5; control promoter light, run 1, well a = 1.66e5; control promoter light, run 1, well b = 1.75e5; uninduced reporter light, run 1, well a = 12628; inactive. Depletion of robo2 #1 resulted in: induced reporter light, run 1, well a = 1.19e5; induced reporter light, run 1, well b = 1.16e5; control promoter light, run 1, well a = 86580; control promoter light, run 1, well b = 53365; uninduced reporter light, run 1, well a = 8050; inactive. With knock-down of robo2 #2 the results were induced reporter light, run 1, well a = 1.05e5; induced reporter light, run 1, well b = 1.27e5; control promoter light, run 1, well a = 91625; control promoter light, run 1, well b = 62580; uninduced reporter light, run 1, well a = 10690; inactive. For robo2 #3, the values are induced reporter light, run 1, well a = 1.44e5; induced reporter light, run 1, well b = 1.09e5; control promoter light, run 1, well a = 98510; control promoter light, run 1, well b = 66855; uninduced reporter light, run 1, well a = 9720; inactive. robo2 #4 gave induced reporter light, run 1, well a = 1.13e5; induced reporter light, run 1, well b = 1.27e5; control promoter light, run 1, well a = 79040; control promoter light, run 1, well b = 81785; uninduced reporter light, run 1, well a = 10590; inactive. l(2)k05819 scored induced reporter light, run 1, well a = 1.71e5; induced reporter light, run 1, well b = 1.97e5; control promoter light, run 1, well a = 1.82e5; control promoter light, run 1, well b = 2.19e5; uninduced reporter light, run 1, well a = 16170; inactive.

2 entries from above, ordered by “uninduced reporter light, run 1, well a”, lowest first.
side-V #2: induced reporter light, run 1, well a = 1.64e5; induced reporter light, run 1, well b = 1.63e5; control promoter light, run 1, well a = 2.64e5; control promoter light, run 1, well b = 2.28e5; uninduced reporter light, run 1, well a = 14595; Outcome = inactive
side-V #1: induced reporter light, run 1, well a = 2.36e5; induced reporter light, run 1, well b = 2.09e5; control promoter light, run 1, well a = 2.05e5; control promoter light, run 1, well b = 1.86e5; uninduced reporter light, run 1, well a = 16915; Outcome = inactive
